According to the supplement of paper PMC10849652:
The list shows a part of the results.

The chains behind the UniProt entries cited, without tags or fusion partners. Where a name states a change or a piece, a line headed by the entry shows the natural chain unless it says otherwise.
UniProt Q8NHP6: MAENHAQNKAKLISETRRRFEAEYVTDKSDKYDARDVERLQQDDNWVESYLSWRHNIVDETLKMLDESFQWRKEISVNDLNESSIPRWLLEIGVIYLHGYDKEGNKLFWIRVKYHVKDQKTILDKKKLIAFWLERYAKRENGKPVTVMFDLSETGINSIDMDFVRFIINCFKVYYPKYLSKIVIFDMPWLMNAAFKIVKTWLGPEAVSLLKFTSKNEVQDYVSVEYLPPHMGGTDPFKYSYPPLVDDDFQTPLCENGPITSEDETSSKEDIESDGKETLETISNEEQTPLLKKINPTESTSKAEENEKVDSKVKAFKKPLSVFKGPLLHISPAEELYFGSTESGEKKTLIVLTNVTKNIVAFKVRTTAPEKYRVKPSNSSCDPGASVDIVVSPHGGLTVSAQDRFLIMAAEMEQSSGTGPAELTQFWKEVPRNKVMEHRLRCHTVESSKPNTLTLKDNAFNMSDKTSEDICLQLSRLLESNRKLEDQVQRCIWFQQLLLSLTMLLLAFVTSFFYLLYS
UniProt Q9NQG6: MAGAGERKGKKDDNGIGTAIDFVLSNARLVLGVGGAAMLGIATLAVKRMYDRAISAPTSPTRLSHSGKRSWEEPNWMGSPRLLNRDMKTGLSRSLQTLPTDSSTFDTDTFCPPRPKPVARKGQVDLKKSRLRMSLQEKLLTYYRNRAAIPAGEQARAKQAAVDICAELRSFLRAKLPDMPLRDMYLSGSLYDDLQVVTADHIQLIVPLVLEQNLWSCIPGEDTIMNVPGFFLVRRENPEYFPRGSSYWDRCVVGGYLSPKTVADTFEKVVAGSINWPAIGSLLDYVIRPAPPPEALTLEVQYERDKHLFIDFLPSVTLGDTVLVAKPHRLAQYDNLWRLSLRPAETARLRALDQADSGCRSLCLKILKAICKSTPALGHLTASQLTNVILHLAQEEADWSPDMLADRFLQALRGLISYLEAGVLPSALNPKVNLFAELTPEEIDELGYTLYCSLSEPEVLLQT
UniProt O95822: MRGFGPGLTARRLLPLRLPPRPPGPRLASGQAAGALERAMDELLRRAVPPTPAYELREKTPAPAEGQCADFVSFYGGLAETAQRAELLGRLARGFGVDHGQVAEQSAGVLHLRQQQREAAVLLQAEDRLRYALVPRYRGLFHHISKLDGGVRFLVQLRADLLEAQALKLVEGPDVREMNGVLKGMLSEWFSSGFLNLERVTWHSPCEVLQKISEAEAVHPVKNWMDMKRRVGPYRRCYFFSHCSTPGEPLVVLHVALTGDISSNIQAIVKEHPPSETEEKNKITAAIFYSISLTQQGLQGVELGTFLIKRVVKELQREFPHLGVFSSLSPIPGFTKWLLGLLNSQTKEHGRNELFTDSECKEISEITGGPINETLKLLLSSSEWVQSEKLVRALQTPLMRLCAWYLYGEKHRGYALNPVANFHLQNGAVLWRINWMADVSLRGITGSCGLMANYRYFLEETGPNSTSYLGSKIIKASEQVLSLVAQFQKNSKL
UniProt O94851, whole entry, looked up: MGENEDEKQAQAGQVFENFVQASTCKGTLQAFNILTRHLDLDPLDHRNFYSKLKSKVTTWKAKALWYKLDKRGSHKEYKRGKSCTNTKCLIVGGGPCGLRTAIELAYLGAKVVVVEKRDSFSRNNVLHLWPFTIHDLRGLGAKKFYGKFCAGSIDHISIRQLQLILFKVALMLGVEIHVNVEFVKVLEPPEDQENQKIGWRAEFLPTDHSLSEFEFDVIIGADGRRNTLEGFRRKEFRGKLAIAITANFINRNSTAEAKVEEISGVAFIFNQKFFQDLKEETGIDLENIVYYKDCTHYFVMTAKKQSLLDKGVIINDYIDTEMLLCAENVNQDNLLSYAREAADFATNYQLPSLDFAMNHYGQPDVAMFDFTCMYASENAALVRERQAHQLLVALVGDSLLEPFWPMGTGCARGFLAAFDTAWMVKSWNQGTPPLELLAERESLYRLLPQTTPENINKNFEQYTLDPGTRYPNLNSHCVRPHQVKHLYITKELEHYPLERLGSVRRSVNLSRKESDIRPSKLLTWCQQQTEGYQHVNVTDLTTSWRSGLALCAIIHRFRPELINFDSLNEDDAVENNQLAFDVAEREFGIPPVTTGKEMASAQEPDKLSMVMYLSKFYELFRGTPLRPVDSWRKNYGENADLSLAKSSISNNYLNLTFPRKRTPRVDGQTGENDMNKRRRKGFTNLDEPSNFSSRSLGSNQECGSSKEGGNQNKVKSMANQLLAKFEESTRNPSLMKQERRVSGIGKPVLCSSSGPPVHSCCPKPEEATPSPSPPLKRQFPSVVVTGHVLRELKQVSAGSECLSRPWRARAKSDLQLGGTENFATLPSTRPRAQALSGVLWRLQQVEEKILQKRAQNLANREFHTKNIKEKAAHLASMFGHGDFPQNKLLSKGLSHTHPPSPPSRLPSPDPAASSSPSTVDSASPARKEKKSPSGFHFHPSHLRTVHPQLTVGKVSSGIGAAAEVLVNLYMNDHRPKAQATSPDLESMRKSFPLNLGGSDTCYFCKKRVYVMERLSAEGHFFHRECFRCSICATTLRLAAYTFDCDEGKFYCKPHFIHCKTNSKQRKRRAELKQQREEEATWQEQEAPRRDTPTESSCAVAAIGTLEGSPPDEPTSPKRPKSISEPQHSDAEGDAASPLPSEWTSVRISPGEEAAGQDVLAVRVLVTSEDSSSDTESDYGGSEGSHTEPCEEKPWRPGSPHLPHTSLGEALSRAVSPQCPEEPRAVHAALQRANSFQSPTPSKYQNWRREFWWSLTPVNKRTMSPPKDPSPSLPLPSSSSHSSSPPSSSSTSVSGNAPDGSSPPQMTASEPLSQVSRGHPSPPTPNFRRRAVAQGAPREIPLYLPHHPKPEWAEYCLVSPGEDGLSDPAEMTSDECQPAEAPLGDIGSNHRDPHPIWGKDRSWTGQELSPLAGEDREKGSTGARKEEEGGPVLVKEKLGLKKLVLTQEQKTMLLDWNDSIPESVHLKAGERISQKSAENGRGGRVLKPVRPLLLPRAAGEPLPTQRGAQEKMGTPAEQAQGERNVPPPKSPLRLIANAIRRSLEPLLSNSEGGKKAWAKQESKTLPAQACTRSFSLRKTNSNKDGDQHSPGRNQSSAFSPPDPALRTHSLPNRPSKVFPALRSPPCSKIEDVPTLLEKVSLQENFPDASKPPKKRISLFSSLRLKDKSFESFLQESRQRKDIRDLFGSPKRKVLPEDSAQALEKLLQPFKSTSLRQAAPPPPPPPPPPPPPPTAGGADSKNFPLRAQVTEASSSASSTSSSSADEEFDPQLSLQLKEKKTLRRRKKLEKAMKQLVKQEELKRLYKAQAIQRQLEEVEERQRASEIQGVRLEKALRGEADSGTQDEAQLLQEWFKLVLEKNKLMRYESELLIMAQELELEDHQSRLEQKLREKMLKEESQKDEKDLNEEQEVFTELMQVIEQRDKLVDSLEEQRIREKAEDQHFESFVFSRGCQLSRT
UniProt Q8WV92, whole entry, looked up: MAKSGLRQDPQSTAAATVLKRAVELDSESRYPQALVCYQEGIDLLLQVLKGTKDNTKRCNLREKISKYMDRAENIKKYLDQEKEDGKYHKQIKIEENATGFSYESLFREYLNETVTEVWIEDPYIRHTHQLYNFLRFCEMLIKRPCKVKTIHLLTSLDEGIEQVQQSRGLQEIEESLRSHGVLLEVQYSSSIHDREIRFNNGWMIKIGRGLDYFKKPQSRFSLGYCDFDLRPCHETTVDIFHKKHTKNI
UniProt Q9BQP7: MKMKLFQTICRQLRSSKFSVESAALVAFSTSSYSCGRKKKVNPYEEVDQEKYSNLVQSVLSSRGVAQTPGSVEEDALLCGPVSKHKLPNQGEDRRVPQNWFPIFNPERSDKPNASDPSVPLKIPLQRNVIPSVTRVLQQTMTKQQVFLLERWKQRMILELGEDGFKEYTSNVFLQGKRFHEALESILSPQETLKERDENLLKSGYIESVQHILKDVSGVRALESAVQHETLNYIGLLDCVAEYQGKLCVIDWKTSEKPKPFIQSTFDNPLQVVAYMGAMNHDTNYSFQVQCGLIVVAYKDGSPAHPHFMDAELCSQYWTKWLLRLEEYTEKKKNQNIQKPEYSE
UniProt P34949: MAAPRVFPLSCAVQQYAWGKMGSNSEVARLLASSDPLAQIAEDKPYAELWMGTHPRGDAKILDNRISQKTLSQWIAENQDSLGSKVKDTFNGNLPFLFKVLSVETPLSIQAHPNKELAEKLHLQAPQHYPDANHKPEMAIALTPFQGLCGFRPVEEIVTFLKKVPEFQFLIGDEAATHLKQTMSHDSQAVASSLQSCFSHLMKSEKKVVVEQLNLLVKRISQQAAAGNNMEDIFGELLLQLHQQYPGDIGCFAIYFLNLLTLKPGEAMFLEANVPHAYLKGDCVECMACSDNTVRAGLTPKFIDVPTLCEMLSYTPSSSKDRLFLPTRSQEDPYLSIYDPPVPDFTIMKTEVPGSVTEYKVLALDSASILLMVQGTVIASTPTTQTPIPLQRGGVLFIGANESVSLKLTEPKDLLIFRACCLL
UniProt O75030: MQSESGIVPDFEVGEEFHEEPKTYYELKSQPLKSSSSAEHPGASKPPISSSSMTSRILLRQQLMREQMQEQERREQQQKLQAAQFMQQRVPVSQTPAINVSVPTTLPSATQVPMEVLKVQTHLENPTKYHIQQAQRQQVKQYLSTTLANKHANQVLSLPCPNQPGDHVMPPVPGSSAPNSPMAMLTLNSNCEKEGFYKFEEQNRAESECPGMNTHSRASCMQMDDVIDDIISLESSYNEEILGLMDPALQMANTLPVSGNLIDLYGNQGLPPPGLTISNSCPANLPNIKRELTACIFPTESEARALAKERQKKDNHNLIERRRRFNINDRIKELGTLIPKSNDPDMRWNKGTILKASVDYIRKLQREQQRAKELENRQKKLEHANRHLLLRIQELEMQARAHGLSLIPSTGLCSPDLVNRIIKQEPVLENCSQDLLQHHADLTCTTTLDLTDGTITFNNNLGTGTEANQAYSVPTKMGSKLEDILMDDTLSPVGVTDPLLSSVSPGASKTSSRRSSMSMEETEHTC
UniProt Q7Z3K6: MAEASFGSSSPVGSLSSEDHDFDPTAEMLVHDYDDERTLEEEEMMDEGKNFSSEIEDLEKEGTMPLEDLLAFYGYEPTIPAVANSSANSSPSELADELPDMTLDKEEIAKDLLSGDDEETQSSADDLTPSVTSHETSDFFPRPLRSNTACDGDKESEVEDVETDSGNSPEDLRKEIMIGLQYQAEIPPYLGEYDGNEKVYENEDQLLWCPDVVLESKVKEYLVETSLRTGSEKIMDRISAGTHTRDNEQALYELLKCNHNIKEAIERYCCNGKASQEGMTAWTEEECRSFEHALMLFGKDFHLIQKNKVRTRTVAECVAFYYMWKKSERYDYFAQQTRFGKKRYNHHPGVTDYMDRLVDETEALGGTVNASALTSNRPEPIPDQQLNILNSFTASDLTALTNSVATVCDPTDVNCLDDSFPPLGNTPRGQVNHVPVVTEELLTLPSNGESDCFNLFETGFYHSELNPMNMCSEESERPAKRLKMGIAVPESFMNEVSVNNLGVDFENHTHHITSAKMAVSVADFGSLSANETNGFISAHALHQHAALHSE
UniProt Q8N344: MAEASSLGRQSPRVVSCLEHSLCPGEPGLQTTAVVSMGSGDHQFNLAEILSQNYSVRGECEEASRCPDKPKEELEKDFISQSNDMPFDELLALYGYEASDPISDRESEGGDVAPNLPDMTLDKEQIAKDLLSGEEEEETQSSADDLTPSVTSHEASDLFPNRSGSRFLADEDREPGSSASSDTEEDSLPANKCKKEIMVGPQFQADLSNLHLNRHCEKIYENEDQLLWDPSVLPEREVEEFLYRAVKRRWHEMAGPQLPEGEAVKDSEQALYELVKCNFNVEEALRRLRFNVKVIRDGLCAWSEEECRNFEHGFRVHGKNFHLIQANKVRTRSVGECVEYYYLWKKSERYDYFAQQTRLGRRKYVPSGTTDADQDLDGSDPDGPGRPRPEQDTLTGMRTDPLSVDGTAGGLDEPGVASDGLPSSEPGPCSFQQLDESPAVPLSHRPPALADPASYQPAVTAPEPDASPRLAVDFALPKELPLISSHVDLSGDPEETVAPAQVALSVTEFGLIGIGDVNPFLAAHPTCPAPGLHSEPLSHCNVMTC
UniProt Q9H8S9: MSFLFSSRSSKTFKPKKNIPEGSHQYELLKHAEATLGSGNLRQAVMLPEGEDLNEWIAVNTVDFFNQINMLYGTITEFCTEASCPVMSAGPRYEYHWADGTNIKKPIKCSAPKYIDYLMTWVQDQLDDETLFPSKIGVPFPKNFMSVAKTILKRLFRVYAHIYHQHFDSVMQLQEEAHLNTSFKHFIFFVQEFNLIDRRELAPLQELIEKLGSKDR

Tests used:
Assay in all cases: log2 fold change, soluble protein after heating vs DMSO (PISA); higher = thermal stabilisation; K562 lysate, 10 uM; active = over 0.2 and 3.5 SD of the protein, either way, in both replicates (recomputed)
ibrutinib = compound: C=CC(=O)N1CCC[C@@H](n2nc(-c3ccc(Oc4ccccc4)cc3)c3c(N)ncnc32)C1 [ibrutinib]
Outline: (§1)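 Pellets of K562 cells were dounce-homogenised in PBS pH 7.4 with 1 mM MgCl2, and the crude extract was held at 1 mg/mL protein for a 30 min treatment with 10 μM compound. Aliquots were heated for 3 min over 48°C-58°C and pooled before NP-40 was added to 0.5% at 4°C. The supernatant from 21,000xg for 90 min was quantified by TMTpro 16plex LC-MS/MS with channel sums equalised. Values are reported from duplicates as log-two fold change in thermal stability relative to solvent controls.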

[1] = compound: CC(=O)c1cnc2ccc(-c3cc(Cl)c(O)c(Cl)c3)nc2c1N[C@H]1CC[C@H](CN(C)C)CC1
Outline: as §1

ralimetinib = compound: CC(C)(C)Cn1c(N)nc2ccc(-c3[nH]c(C(C)(C)C)nc3-c3ccc(F)cc3)nc21 [ralimetinib]
Outline: as §1

[2] = compound: CC(C)(O)CC(=O)NCCn1ccc2ncnc(Nc3ccc(Oc4cccc(C(F)(F)F)c4)c(Cl)c3)c21
Outline: as §1

[3] = compound: CC(C)C1=C2N=C(C=C(N2N=C1)NCC3=CC=CC=C3)NCCCCCCN
Outline: as §1

[4] = compound: CC1=C(C(CC(=O)N1)C2=CC=C(C=C2)C(F)(F)F)C(=O)NC3=C(C=C4C(=C3)C=NN4)F
Outline: as §1

[5] = compound: CC1=C(C2=C(C=C1)C(=O)C3=CC=CC=C3N2CCCN)C
Outline: as §1

[6] = compound: CC1=C(C=C(C=C1)NC(=O)C2=CC(=CC=C2)C(C)(C)C#N)NC3=CC4=C(C=C3)N=CN(C4=O)C
Outline: as §1

[7] = compound: CC1=C(C=C(C=C1)NC(=O)C2=CC(=CC=C2)N(C)C)NC(=O)C3=CC=C(C=C3)O
Outline: as §1

[8] = compound: CC1=CC=C(C=C1)SC2=C3C=C(SC3=CN=C2)C(=O)N
Outline: as §1

vemurafenib = compound: CCCS(=O)(=O)Nc1ccc(F)c(C(=O)c2c[nH]c3ncc(-c4ccc(Cl)cc4)cc23)c1F [vemurafenib]
Outline: as §1

[9] = compound: CCCS(=O)(=O)Nc1ccc(F)c(C(=O)c2c[nH]c3ncc(Cl)cc23)c1F
Outline: as §1

barasertib = compound: CCN(CCCOc1ccc2c(Nc3cc(CC(=O)Nc4cccc(F)c4)[nH]n3)ncnc2c1)CCOP(=O)(O)O [barasertib]
Outline: as §1

[10] = compound: CC[C@@H]1C(=O)N(C)c2cnc(Nc3ccc(C(=O)NC4CCN(C)CC4)cc3OC)nc2N1C1CCCC1
Outline: as §1

volasertib = compound: CC[C@@H]1C(=O)N(C)c2cnc(Nc3ccc(C(=O)N[C@H]4CC[C@H](N5CCN(CC6CC6)CC5)CC4)cc3OC)nc2N1C(C)C [volasertib]
Outline: as §1

[11] = compound: CCn1c(C(=O)N(C2CC2)C2CC2)cc2c3c(ncn3C)c(Nc3cc(C)n(C)n3)nc21
Outline: as §1

[12] = compound: CCn1cc(-c2ccnc3[nH]c(-c4cccc(CN(C)C)c4)cc23)c(-c2ccc(NC(=O)N(C)C)cc2)n1
Outline: as §1

[13] = compound: CN1CCC(CNc2ccc3ncc(-c4cccc(OC(F)(F)F)c4)n3n2)CC1
Outline: as §1

saracatinib = compound: CN1CCN(CCOc2cc(OC3CCOCC3)c3c(Nc4c(Cl)ccc5c4OCO5)ncnc3c2)CC1 [saracatinib]
Outline: as §1

sotrastaurin = compound: CN1CCN(c2nc(C3=C(c4c[nH]c5ccccc45)C(=O)NC3=O)c3ccccc3n2)CC1 [sotrastaurin]
Outline: as §1

Measured: log2 fold change

MOSPD2 (UniProt Q8NHP6)
inactive: ibrutinib -0.023 | [1] 0.019 | ralimetinib 0.023 | [2] 0.067 | [3] 0.028 | [4] -0.049 | [5] 0.009 | [6] -0.037 | [7] -0.012 | [8] 0.017 | vemurafenib 0.003 | [9] 0.008 | barasertib -0.007 | [10] 0.158 | volasertib -0.014 | [11] 0.039 | [12] -0.054 | [13] 0.004 | saracatinib 0.043 | sotrastaurin 0.076

MIEF1 (UniProt Q9NQG6)
inactive: ibrutinib 0.068 | [1] 0.019 | ralimetinib -0.002 | [2] -0.055 | [3] 0.036 | [4] 0.012 | [5] -0.012 | [6] -0.006 | [7] 0.052 | [8] 0.009 | vemurafenib -0.012 | [9] -0.012 | barasertib 0.082 | [10] -0.031 | volasertib -0.072 | [11] -0.021 | [12] 0.003 | [13] -0.165 | saracatinib 0.076 | sotrastaurin -0.004

MLYCD (UniProt O95822)
inactive: ibrutinib -0.05 | [1] 0.154 | ralimetinib -0.012 | [2] -0.116 | [3] 0.053 | [4] -0.064 | [5] 0.002 | [6] -0.035 | [7] -0.021 | [8] 0.011 | [9] -0.011 | barasertib 0.118 | [10] -0.093 | volasertib 0.003 | [11] 0.012 | [12] -0.054 | [13] 0.119 | saracatinib -0.004 | sotrastaurin 0

MICAL2 (UniProt O94851)
inactive: ibrutinib 0.05 | [1] 0.2 | ralimetinib -0.046 | [2] 0.056 | [3] -0.004 | [4] -0.075 | [5] 0.236 | [6] 0.049 | [7] 0.034 | [8] -0.133 | vemurafenib 0.058 | [9] -0.223 | barasertib -0.045 | volasertib 0.052 | [11] -0.12 | [12] -0.094 | [13] 0.047 | saracatinib -0.206 | sotrastaurin -0.055

MRPL1 (UniProt Q9BYD6)
inactive: ibrutinib 0.055 | [1] 0.032 | ralimetinib 0.039 | [2] 0.011 | [3] 0.039 | [4] -0.035 | [5] -0.053 | [6] -0.032 | [7] 0.031 | [8] -0.005 | vemurafenib 0.008 | [9] 0.033 | barasertib 0.02 | [10] -0.035 | volasertib -0.013 | [11] -0.043 | [12] 0.013 | [13] 0 | saracatinib -0.006 | sotrastaurin 0.086

MITD1 (UniProt Q8WV92)
inactive: ibrutinib 0.007 | [1] -0.067 | ralimetinib -0.039 | [2] 0.01 | [3] 0.024 | [4] -0.02 | [5] -0.071 | [6] -0.059 | [7] 0.058 | [8] -0.027 | vemurafenib 0.044 | [9] 0.001 | barasertib 0.057 | [10] 0.013 | volasertib -0.07 | [11] -0.031 | [12] -0.269 | [13] -0.163 | saracatinib 0.024 | sotrastaurin 0.039

MGME1 (UniProt Q9BQP7)
inactive: ibrutinib -0.025 | [1] -0.003 | ralimetinib 0.019 | [2] -0.004 | [3] -0.008 | [4] -0.008 | [5] 0.016 | [6] 0.008 | [7] -0.007 | [8] -0.028 | vemurafenib 0.003 | [9] 0.002 | barasertib 0 | [10] -0.024 | volasertib -0.011 | [11] -0.037 | [12] 0.016 | [13] -0.014 | saracatinib 0.009 | sotrastaurin 0.012

MPI (UniProt P34949)
inactive: ibrutinib 0.029 | [1] 0.031 | ralimetinib -0.06 | [2] 0.009 | [3] -0.039 | [4] -0.004 | [5] -0.051 | [6] 0.055 | [7] -0.012 | [8] -0.013 | vemurafenib 0.013 | [9] 0.007 | barasertib 0.008 | [10] 0.014 | volasertib -0.02 | [11] -0.011 | [12] 0.149 | [13] -0.067 | saracatinib -0.028 | sotrastaurin 0.025

Reprinted from the results shown (2 entries):
MRPL1 (UniProt Q9BYD6)
inactive: ibrutinib 0.055 | [1] 0.032 | ralimetinib 0.039 | [2] 0.011 | [3] 0.039 | [4] -0.035 | [5] -0.053 | [6] -0.032 | [7] 0.031 | [8] -0.005 | vemurafenib 0.008 | [9] 0.033 | barasertib 0.02 | [10] -0.035 | volasertib -0.013 | [11] -0.043 | [12] 0.013 | [13] 0 | saracatinib -0.006 | sotrastaurin 0.086

MITD1 (UniProt Q8WV92)
inactive: ibrutinib 0.007 | [1] -0.067 | ralimetinib -0.039 | [2] 0.01 | [3] 0.024 | [4] -0.02 | [5] -0.071 | [6] -0.059 | [7] 0.058 | [8] -0.027 | vemurafenib 0.044 | [9] 0.001 | barasertib 0.057 | [10] 0.013 | volasertib -0.07 | [11] -0.031 | [12] -0.269 | [13] -0.163 | saracatinib 0.024 | sotrastaurin 0.039

Next records

MITF (UniProt O75030)
inactive: ralimetinib 0.043 | [2] 0.012 | [3] 0.064 | [5] 0.053 | [6] -0.018 | [7] 0.01 | vemurafenib -0.031 | [10] 0.037 | [11] 0.008 | [12] -0.058 | [13] -0.014 | saracatinib -0.057 | sotrastaurin -0.088

MIER3 isoform 2 (UniProt Q7Z3K6)
inactive: ibrutinib -0.128 | ralimetinib 0.055 | [2] -0.008 | [3] 0.023 | [4] -0.202 | [5] -0.069 | [6] 0.004 | [7] -0.037 | vemurafenib -0.033 | barasertib 0.091 | [10] -0.014 | [11] 0.035 | [12] 0.042 | [13] -0.063 | saracatinib -0.012 | sotrastaurin -0.034

MIER2 (UniProt Q8N344)
inactive: ibrutinib 0.039 | ralimetinib 0.057 | [2] 0.047 | [3] 0.106 | [5] -0.078 | [7] -0.051 | vemurafenib 0.084 | barasertib -0.061 | [10] -0.053 | [11] 0 | [12] -0.081 | [13] -0.059 | saracatinib -0.119

MOB1A (UniProt Q9H8S9)
inactive: vemurafenib 0.307 | [10] 0.147
